# In PubChem BioAssay AID1259354 (Paczesny and Yang Labs, IUPUI and University of Michigan, 2018):
# Chains of the proteins cited; added tags and fusions are not shown. Lines headed by an entry give the natural chain unless they say otherwise; changes in a name come on top.
# UniProt Q01638: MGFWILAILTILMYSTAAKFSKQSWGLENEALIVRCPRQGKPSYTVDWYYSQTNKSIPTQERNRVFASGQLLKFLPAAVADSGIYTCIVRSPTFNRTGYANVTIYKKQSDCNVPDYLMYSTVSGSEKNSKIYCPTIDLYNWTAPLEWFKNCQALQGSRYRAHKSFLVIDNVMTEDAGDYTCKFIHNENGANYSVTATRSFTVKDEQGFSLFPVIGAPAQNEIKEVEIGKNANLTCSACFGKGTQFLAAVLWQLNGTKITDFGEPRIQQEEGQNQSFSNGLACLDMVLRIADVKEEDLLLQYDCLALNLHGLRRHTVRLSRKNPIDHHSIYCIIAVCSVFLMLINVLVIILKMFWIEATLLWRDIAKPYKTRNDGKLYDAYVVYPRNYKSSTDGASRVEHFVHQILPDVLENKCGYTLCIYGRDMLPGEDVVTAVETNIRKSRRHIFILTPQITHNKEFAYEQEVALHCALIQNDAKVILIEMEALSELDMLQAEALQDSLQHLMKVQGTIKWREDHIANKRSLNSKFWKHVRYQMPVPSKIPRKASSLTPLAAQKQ
# Values joined by “and” are separate entries in the source; they are usually repeats but may differ in a detail not shown here. Identical values can stand only once. The campaign covered roughly 78,000 compounds. About 1,800 (2.3%) were called active. This list was built around the results that the source calls inconclusive (neither active nor inactive); the mix of calls is not that of the screen. No stated cut-off is given here; in the data, active means inhibition above about 30%; inconclusive means mostly about 10% to 28%; inactive means weaker than that.
# Biological target: Interleukin-1 receptor-like 1 (Homo sapiens) (UniProt Q01638)
# Test: blocks human ST2 binding to IL-33, primary screen, biochemical, AlphaLISA (AID 1259354)
# Conditions: AlphaLISA ST2-Fc/biotin-IL-33 interaction, 1 h; at 17 µM, hits give high values
row,SMILES,inhibition
1,COc1ccc2nc(N3CCC(C(=O)N4CCC(C)CC4)CC3)sc2c1,inconclusive: 22%
2,CC(=O)c1cccc(NC(=O)c2noc3c2CC(C(C)(C)C)CC3)c1 (centres undefined),inactive
3,CN(C)c1ncc(CN2CCN(Cc3ccc(F)c(F)c3)C(CCO)C2)s1 (centres undefined),inactive
4,COc1ccc(N(CC(=O)Nc2ccccc2OC)S(C)(=O)=O)cc1,inconclusive: 21%
5,COc1ccc(N2CC(NC(=O)CCc3ccccc3)CC2=O)cc1 (centres undefined),inactive
6,O=C(NCc1cccnc1)C1CCN(S(=O)(=O)N2CCCCC2)CC1,inconclusive: 12%
7,CC(C)(C)c1ccc(OCCCCN2CCOCC2)cc1,inactive
8,CCS(=O)(=O)N1CCN(c2ccc([N+](=O)[O-])c(NC3CC3)c2)CC1,inconclusive: 15%
9,c1cn(CCSc2cn[nH]n2)c(-c2ccc3c(c2)OCCO3)n1,inconclusive: 20%
10,O=C(Nc1ccc2c(c1)OCCO2)C1CCN(S(=O)(=O)c2cccc3cccnc23)CC1,inconclusive: 11%
11,O=C(O)c1cc([N+](=O)[O-])ccc1NCCCc1ccccc1,inconclusive: 19%
12,Cc1cc(N2CCOCC2)nc(N2CCN(S(=O)(=O)c3ccc(Oc4ccccc4)cc3)CC2)n1,inactive
13,COc1ccc(-c2noc([C@@H]3C[C@@H](O)CN3CC3CCCCC3)n2)cc1,inconclusive: 18%
14,COc1ccc(CN2CC(OCc3ccccc3F)CN(C(=O)C(=O)c3ccccc3)CC2=O)cc1 (centres undefined),inactive
15,Cc1cc(Nc2ccccc2)nc(Nc2ccc(NC(=O)c3cccs3)cc2)n1,inconclusive: 10%
16,CC1(C)NC(=O)N(CC(O)CN2C(=O)NC(C)(C)C2=O)C1=O,inconclusive: 14%
17,CCc1ccccc1NC(=O)c1ccncc1,inactive
18,COCC(=O)N1CCN(C(C)=O)C[C@@H]1C(=O)N[C@H](C)C(=O)OC,inactive
19,CCOc1ccc(NC(=O)Nc2cccc(Cl)c2)cc1,inactive
20,Cc1ccccc1-c1cc(N2CCN(S(=O)(=O)Cc3ccccc3)CC2)ncn1,inconclusive: 14%
21,Cc1ccccc1C(=O)Nc1nnc(N=Cc2ccc(F)cc2)s1,inactive
22,COC(=O)[C@@H]1C[C@@H](N(C)C)CN1Cc1cc2c(cc1OC)CCC2,inconclusive: 16%
23,O=C(c1cccnc1)N1CCC2(CCCN(CCc3ccccc3)C2)C1 (centres undefined),inactive
24,COc1ccccc1OCC(=O)N1CCN(c2ccccn2)CC1,inactive

row,SMILES,inhibition
1,Cc1ccc(-c2cc(C(F)F)nc(N3CCCCC3)n2)cc1,inactive
2,COc1ccc(Cc2nnc(NC(=O)Nc3cccc(Cl)c3)s2)cc1OC,inactive
3,CC1=C(C(=O)OC2CCCCC2)C(c2ccccc2Cl)n2nnnc2N1 (centres undefined),inactive
4,CC(Cn1ccnc1)NCC1(N2CCCCC2)CCCCC1 (centres undefined),inactive
5,COc1ccc(-c2csc(Nc3ccc(C(=O)O)cc3)n2)cc1OC,inactive
6,Cc1cccn2c(=O)c3cc(C(=O)N4CCCC(C)C4)n(C)c3nc12 (centres undefined),inconclusive: 12%
7,CCN1CCN(C(=O)c2ccc(Cl)c(Cl)c2)CC1,inactive
8,CCC(C)C(NC(C)=O)c1cc(OC)cc(=O)o1 (centres undefined),inconclusive: 21%
9,CCC1CCCCN1S(=O)(=O)c1ccc(C(=O)Nc2nnc(-c3ccccc3Cl)o2)cc1 (centres undefined),inconclusive: 11%
10,CC1=NOC(C(=O)NCc2cnn3ccccc23)C1 (centres undefined),inconclusive: 23%
11,N=C(N)SCCc1ccc(CCSC(=N)N)cc1,inconclusive: 25%
12,CSc1nc(-c2cccs2)cc(C(F)(F)F)c1C#N,inconclusive: 17% and inconclusive: 14%
13,O=C(CSc1nc2c(sc3ccccc32)c(=O)n1CCc1ccccc1)NCC1CCCO1 (centres undefined),inconclusive: 13%
14,CCC(NC(=O)c1oc2ccc(C)cc2c1C)c1ccncc1 (centres undefined),inactive
15,CCc1nccn1CCC(=O)N1CCC2(CCCN(CC3CCC3)C2=O)C1 (centres undefined),inactive
16,Cc1ccc(-n2c(SCC(=O)Nc3ccccc3C(F)(F)F)nc3c(c2=O)SCC3)cc1,inactive
17,Cc1ccc2c(c1Br)C(=Nc1ccc(F)cc1)C(=O)N2,inconclusive: 22%
18,CN1CCN(S(=O)(=O)c2cc([N+](=O)[O-])ccc2N2CCN(Cc3ccccc3)CC2)CC1,inactive
19,Cc1nc2ncccn2c1-c1csc(Nc2ccccn2)n1,inconclusive: 11%
20,COCCCN1C(=O)N(Cc2ccc3ccccc3c2)C(=O)C12CCN(C1CCSC1)CC2 (centres undefined),inconclusive: 21%
21,CC(C)C1CN(C(=O)c2cnn(C)c2)CCCN1CC1CC1 (centres undefined),inactive
22,COc1ccc2c(c1)CCc1c(C(=O)Nc3cc(Cl)ccc3OC)noc1-2,inconclusive: 12%
23,Cn1cc(C=C2C(=O)OC3(CCCCC3)OC2=O)c2ccccc21,active: 41%
24,COc1ccc(NC(=O)c2ccc(Cl)cc2)c(OC)c1,inactive

row,SMILES,inhibition
1,Cc1cccc(-c2nnc(-c3nc(NC(C)C(=O)N4CCCCC4)c4ccccc4n3)o2)c1 (centres undefined),inactive
2,CNC(=O)CC1C(=O)NCCN1CCn1c(=O)oc2ccccc21 (centres undefined),inconclusive: 16%
3,Cc1[nH]c2ccccc2c1CCNC(=O)Cn1cnc([N+](=O)[O-])n1,inactive
4,Cc1ccc(C(=O)NCc2ccc(Cl)cc2)o1,inconclusive: 11%
5,COc1ccc(Br)cc1/C=C1\C(=O)N(c2ccc(Cl)c(C(=O)O)c2)N=C1C,inconclusive: 19%
6,O=S(=O)(c1cccc(Cl)c1)N1CCN(c2cc(-c3cccc(F)c3)ncn2)CC1,inactive
7,O=C(NCCSc1c(-c2ccc(Cl)cc2)[nH]c2ccccc12)c1ccncc1,inconclusive: 17%
8,Cc1oc(-c2ccc(Cl)cc2)nc1CSCC(=O)N1CCCCC1,inconclusive: 25%
9,CCOc1ccccc1NC(=O)c1ccc(Br)o1,inconclusive: 25%
10,CCN(CC)S(=O)(=O)c1ccc2[nH]cc(C(=O)O)c2c1,inactive
11,Cc1cccc(Cn2c(CNS(=O)(=O)c3ccccc3)nc3cccnc32)c1,inactive
12,COC(=O)c1cccc(NC(=S)N[C@H]2CO[C@H]3[C@@H]2OC[C@@H]3n2nnnc2Oc2ccc(-n3cncn3)cc2)c1,inconclusive: 15%
13,O=C(c1cccc(F)c1)N1CCN2C(=O)N(C3CCCCC3)C(=O)[C@@H]2C1,inconclusive: 10%
14,Cc1cc(-c2ccc(-c3ccn[nH]3)cc2)nc(N)n1,inconclusive: 15%
15,Cc1cc(N2CCCCC2)nc2ccc(NC(=O)CCC(=O)N3CC(C)CC(C)C3)cc12 (centres undefined),inconclusive: 16%
16,Cc1cc(Oc2ncnc(N)c2[N+](=O)[O-])ccc1C(C)C,inconclusive: 11%
17,CCOc1ccc2c(c1)C(=O)c1cc(OCC)ccc1-2,active: 46%
18,CCNC(=O)NC[C@@H]1C=C(C)[C@H](CC(=O)N2CCN(c3ccccn3)CC2)C[C@H]1C(C)C,inconclusive: 14%
19,O=c1oc2cc(OCc3ccc([N+](=O)[O-])cc3)ccc2c2c1CCC2,inactive
20,O[C@H]1[C@H](NCC2CCCCC2)[C@H]2CO[C@H](O2)[C@@H]1Oc1ccccc1,inactive
21,CN[C@H](C(=O)N[C@@H]1C=C(C(=O)N[C@H](CC(C)C)C(N)=O)C[C@@H](O)[C@@H]1O)C(C)C,inconclusive: 18%
22,CC1=C[C@@H](CNC(=O)c2ccncc2)[C@H](C(C)C)C[C@H]1Cc1nnc(-c2ccncc2)o1,inconclusive: 14%
23,Cc1cc(N2CCCN(Cc3ccc4cccc(O)c4n3)CC2)ccn1,inconclusive: 22%
24,O=C(c1ccc(N2CCC(NCC3COc4ccccc4O3)CC2)cc1)N1CCOCC1 (centres undefined),inconclusive: 13%

row,SMILES,inhibition
1,CN(C)c1ccc(-c2ccnc(N[C@H]3CO[C@H]4[C@@H]3OC[C@H]4OC(=O)NCc3ccccc3)n2)cc1,inconclusive: 15%
2,O=C(CSc1nc2ccccc2[nH]1)N1CCCCCC1,inactive
3,c1cncc(COC2CCCN(Cc3cnc[nH]3)C2)c1 (centres undefined),inconclusive: 12%
4,CCN1C(=O)CC(CC(=O)N(C)Cc2ccc(-n3cccn3)cc2)(c2cccc(C(F)(F)F)c2)C1=O (centres undefined),inconclusive: 16%
5,O[C@@H]1C[C@H]2CN(Cc3ccc(SC4CCCCC4)o3)C[C@H]2C[C@@H]1O,inactive
6,Cc1nn(C(=O)/C=C/c2ccccc2)c(C)c1Sc1ccccc1,active: 39%
7,c1ccc(CNc2nc(-c3ccccn3)cs2)cc1,active: 36%
8,CCOC(=O)c1c(-c2ccccc2)csc1NC(=O)CCCn1nc(C)c([N+](=O)[O-])c1C,inactive
9,CCn1nc(C(=O)N(C)Cc2ccco2)c2c1CCC(NCCSC)C2 (centres undefined),inactive
10,CCN(CC)CCNC(=O)C1CCN(S(=O)(=O)N2CCCCC2)CC1,inconclusive: 12%
11,COC(=O)c1cccnc1N1CCCC(C(=O)c2ccc(SC)cc2)C1 (centres undefined),inactive
12,O=C(CCCN1CCC(O)(c2ccc(Cl)cc2)CC1)c1ccc(F)cc1,inconclusive: 16%
13,COc1ccc(OC)c(/C=C2/C(=O)NN(c3ccc(C)c(Cl)c3)C2=O)c1,inactive
14,COc1ccc(C2CC(c3ccc(OC)c(OC)c3)n3nc(N)nc3N2)cc1 (centres undefined),inconclusive: 12%
15,CCOC(=O)c1c(NC(=O)c2cc3cc(Br)ccc3oc2=O)sc2c1CCC2,inconclusive: 18%
16,O=C1C=C(c2ccccc2)C[C@H](c2cccc([N+](=O)[O-])c2)[C@H]1n1nnc2ccccc21,inconclusive: 23%
17,CC(=O)Nc1ccc(-c2c(-c3ccccc3)ncn2C2CC=CC2)cc1,inconclusive: 10%
18,O=C1CCCN1C1CCCN(CCn2cc(Cl)cn2)C1 (centres undefined),inactive
19,CN1CCC=C(CCNC(=O)C23CC4CC(CC(C4)C2)C3)C1,inconclusive: 10%
20,CCc1ocnc1C(=O)N1CCn2nc(C(=O)OC)cc2C1,inconclusive: 11%
21,CC(C)C(C(=O)N1CCCCC1)N1C(=O)c2ccccc2C1=O (centres undefined),inconclusive: 11%
22,Cc1cccc(-c2c(-c3ccccc3)ncn2CCCn2ccnc2)c1,inconclusive: 16%
